Results reported in PMC12242765, “CDK-driven phosphorylation of TRAIP is essential for mitotic replisome disassembly and MiDAS” (Nucleic Acids Research, 2025).
Results are given in words; binding and its absence hold for the method and conditions named. Binding seen in cells or lysates may run through a third protein. Some entries that bind do so weakly or less than the wild type.

By UniProt entry, the sequences of proteins in these tests, tags left out.
UniProt Q9YHZ6: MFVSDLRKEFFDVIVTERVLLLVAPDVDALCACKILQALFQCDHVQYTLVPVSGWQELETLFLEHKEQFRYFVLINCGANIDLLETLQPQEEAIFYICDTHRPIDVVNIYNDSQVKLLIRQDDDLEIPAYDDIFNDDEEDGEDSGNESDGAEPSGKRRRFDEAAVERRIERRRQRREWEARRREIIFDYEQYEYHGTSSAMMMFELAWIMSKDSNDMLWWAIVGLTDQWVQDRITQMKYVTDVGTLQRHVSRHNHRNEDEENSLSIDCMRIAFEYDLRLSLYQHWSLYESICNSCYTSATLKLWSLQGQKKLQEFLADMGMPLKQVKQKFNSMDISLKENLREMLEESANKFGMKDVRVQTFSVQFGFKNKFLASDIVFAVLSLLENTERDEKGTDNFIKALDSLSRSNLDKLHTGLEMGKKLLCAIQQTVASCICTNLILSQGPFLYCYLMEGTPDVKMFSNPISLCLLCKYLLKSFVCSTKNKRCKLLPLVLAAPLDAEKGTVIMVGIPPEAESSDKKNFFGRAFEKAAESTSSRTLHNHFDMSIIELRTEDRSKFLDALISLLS
UniProt Q91876: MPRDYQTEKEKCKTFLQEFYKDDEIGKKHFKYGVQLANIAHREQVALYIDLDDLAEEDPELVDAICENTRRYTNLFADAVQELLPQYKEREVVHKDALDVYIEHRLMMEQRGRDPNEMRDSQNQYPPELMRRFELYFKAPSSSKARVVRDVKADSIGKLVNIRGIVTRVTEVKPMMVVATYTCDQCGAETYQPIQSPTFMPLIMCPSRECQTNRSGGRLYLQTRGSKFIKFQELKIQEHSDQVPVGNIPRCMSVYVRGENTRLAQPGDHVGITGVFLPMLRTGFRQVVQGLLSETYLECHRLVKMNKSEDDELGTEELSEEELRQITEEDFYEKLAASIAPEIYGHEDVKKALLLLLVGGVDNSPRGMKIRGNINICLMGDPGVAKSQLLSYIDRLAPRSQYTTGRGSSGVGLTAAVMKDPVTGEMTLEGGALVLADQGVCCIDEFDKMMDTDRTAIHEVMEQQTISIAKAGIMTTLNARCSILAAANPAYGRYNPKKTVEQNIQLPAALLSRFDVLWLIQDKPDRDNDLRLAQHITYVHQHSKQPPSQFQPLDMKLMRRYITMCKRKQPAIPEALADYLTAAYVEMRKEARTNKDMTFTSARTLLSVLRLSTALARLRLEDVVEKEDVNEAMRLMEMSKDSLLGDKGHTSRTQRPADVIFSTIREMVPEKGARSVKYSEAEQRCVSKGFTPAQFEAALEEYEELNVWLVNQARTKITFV

Target: X. laevis rCdc45-FLAG (X. laevis) (UniProt Q9YHZ6)
Test: co-IP; rCdc45-FLAG added to the replication reaction in egg extract with CULi and p97i; chromatin isolated in S-phase or 30 min after CyclinAΔN; replisomes released by benzonase, FLAG-IP, elution with FLAG peptide; immunoblot; only the target purified

## Mcm7 (from UniProt Q91876 1-720)
  binding: binds
